# Screen size: about 71,000 compounds; about 310 (0.44%) were called active. The shares of active, inactive and inconclusive entries below differ from those in the screen. Calls follow the shape of the dose curve; as a rule, active = well fitted curve in either direction with a large enough effect; inconclusive = small, poorly fitted or top-dose-only effect, or another doubt; inactive = flat fitted curve, though single readings scatter. Potencies of inconclusive entries are doubtful fits and often do not repeat.
# Tested on: Hsp90 C-terminal peptide / TPR2A (Hop) interaction, human
# Assay: qHTS Assay for Disrupters of an Hsp90 Co-Chaperone Interaction
# Settings: AlphaScreen TPR2A-His6 binding biotin-Hsp90 C-terminal peptide; activity change, negative = inhibition: at 57 µM (top of the series) unless noted
# % is scaled to controls: 0 for no effect and ±100 for the full control effect; potency is read from the fitted curve at half-maximal effect.
Compound,"activity change, negative = inhibition",Potency
COC(=O)Nc1ccc(S(=O)(=O)N(C)CC(F)(F)C(F)F)cc1,inconclusive: 45.4%,
C(CCc1nnc2c(n1)CCCC2)Cc1nnc2c(n1)CCCC2,inactive: -5.28% [at 11 µM],
Cc1ccc(-n2c(SCc3nnc4n3CCC4)nnc2-c2ccccc2)cc1,inconclusive: 16.2%,
Cc1cc(C)n2nc(SCn3nnc4ccccc4c3=O)nc2n1,inactive: -5.08%,
CCOC(=O)N1CCN(C(=O)c2ccc3nc4ccsc4c(=O)n3c2)CC1,inactive: -0.987%,
CCNc1ncc2nc(CCc3ccccc3)c(=O)n(CCC#N)c2n1,inactive: -1.36%,
O=C(Nc1cccc(F)c1)N1CC2(CCN(C(=O)c3ccncc3)CC2)C1,inconclusive: 52.5%,
COc1ccc(-c2c(NC(C)=O)n(C)c3ccccc3c2=O)cc1,inactive: -7.49%,
CN(C)c1ccc(C(=O)Nc2nc3c(s2)CCCC3)cc1,inconclusive: 40.8%,
CC(C)(C)NC(=O)NC(=O)COC(=O)c1ccco1,inconclusive: 48.8%,
O=C1CC(N2CCN(Cc3ccc4c(c3)OCO4)CC2)C(=O)N1c1ccccc1 (stereo not given),inconclusive: 58.3%,
Cc1sc2ncnc(SC(C)C#N)c2c1C (stereo not given),inconclusive: 32.3%,
c1ccc(-n2nnnc2SCCCSc2nc3ccccc3s2)cc1,,"inconclusive: 25.1 µM [activator, single point]"
Cc1ccc(-c2ccc(=O)n(CCC(=O)NCc3ccccn3)n2)cc1,,"inconclusive: 25.1 µM [inhibitor, partial curve]"
Nc1cccc(NC(=O)c2cccs2)c1,inactive: -1.06%,
Cc1cc(C2(c3cc(C)c(O)c(C(=O)O)c3)OS(=O)(=O)c3ccccc32)cc(C(=O)O)c1O,inactive: 1.16% [at 11 µM],
CN(C)c1ccc(NC(=O)CSc2nc3ccccc3c(=O)n2C2CCCCC2)cc1,,"inconclusive: 10 µM [inhibitor, partial curve]"
CC(C)N1C(=O)CCC1C(=O)N1CCC(Cc2ccccc2)CC1 (stereo not given),inactive: -1.65%,
COc1cccc(CSc2nnc(-c3ccc(F)cc3)o2)c1,,"inconclusive: 31.6 µM [activator, single point]"
O=c1cc(O)cc(/C=C\c2ccc(O)c(O)c2)o1,,active: 12.6 µM
CCCCNC(=O)c1ccc2nc(-c3ccco3)c(-c3ccco3)nc2c1,inconclusive: 40% [at 2.3 µM],
Cc1cnc(C(=O)Nc2nnc(C)s2)cn1,,"inconclusive: 31.6 µM [inhibitor, single point]"
COc1ccc(-c2cc(-c3cc(F)ccc3O)[nH]n2)cc1OC,inactive: -7.06%,
Cn1cccc1Cc1nnc(SCC(=O)Nc2nccs2)n1CCc1ccccc1,inactive: -13.6%,
Cc1nnc(NC(=O)c2ccc3ccccc3c2)o1,,"inconclusive: 31.6 µM [inhibitor, single point]"
CCOC(=O)C1CCCN(C(=O)c2cnn3c(C(F)(F)F)cc(-c4ccccc4)nc23)C1 (stereo not given),inconclusive: 60%,
COC(=O)C1=C2SC(C)C(=O)N2C(N)=C(C#N)C1c1ccc(OC)c(OC)c1 (stereo not given),inactive: -4.09%,

Compound,"activity change, negative = inhibition",Potency
COC(=O)C1(Cc2ccccc2)C=C2C(=C(C)C(=O)C2C)CN1 (stereo not given),inconclusive: 70.4%,
CCOC(=O)c1cc(CC)sc1NC(=O)Cc1ccsc1,,"inconclusive: 20 µM [activator, single point]"
O=C(O)COc1ccc(Br)cc1/C=N/O,inactive: -0.898% [at 11 µM],
Cc1cc2nc(N)sc2cc1C,inconclusive: 50.3%,
O=C1c2ccccc2C(Nc2ccc3c(c2)OCCO3)N1Cc1ccccc1 (stereo not given),,"inconclusive: 20 µM [inhibitor, partial curve]"
COc1ccccc1C(=O)Nc1c2c(nn1-c1cccc(C)c1C)CS(=O)(=O)C2,inactive: -6.94%,
NC(=O)Nc1ccc(Oc2c(F)c(F)c(F)c(F)c2F)cc1,inconclusive: 38.7%,
COc1ccc2c(=O)c3c(=O)n(Cc4ccco4)c(-c4ccc(C)cc4)nc3oc2c1,inactive: -4.28%,
Cc1ccc2c(c1)N(CCC(=O)NCc1ccccn1)C(=O)CO2,,"inconclusive: 25.1 µM [inhibitor, partial curve]"
COc1cc2c(C#N)c(N3CCN(c4ccccc4OC)CC3)nc(N)c2c(N)n1,inactive: -6.92%,
Cc1cc2c(c(=O)o1)C(C13C=CC(CC1)C3)C(C#N)=C(N)O2 (stereo not given),inconclusive: 43%,
CN(C)c1ccc(C2(c3ccc(N(C)C)cc3)OC(=O)c3cc(N(C)C)ccc32)cc1,,active: 2.51 µM
Oc1cc(O)c2c(c1)O[C@H](c1ccc(O)c(O)c1)[C@@H](O)C2,inconclusive: 55%,
COc1ccc(-c2noc(CCCOc3ccccc3)n2)cc1OC,,"inconclusive: 25.1 µM [activator, single point]"
CC(C)(c1cc(Br)c(OCC(Br)CBr)c(Br)c1)c1cc(Br)c(OCC(Br)CBr)c(Br)c1 (stereo not given),inactive: 2.33%,
c1ccc(CSc2nnc(NC3=NCCCCC3)s2)cc1,,"inconclusive: 25.1 µM [activator, single point]"
Cc1cccc(NC(=O)Cn2nnc(-c3cccs3)n2)c1C,,"inconclusive: 25.1 µM [inhibitor, single point]"
COc1ccc(C2C(C(=O)Nc3cccnc3)=C(C)Nc3nc(-c4ccco4)nn32)cc1 (stereo not given),inconclusive: 37.6%,
Cc1cc(Nc2cccc(C(F)(F)F)c2)n2nc(C)nc2n1,inactive: -0.405%,
C[N+]1(C)CCC(OC(=O)C(c2ccccc2)c2ccccc2)CC1,inconclusive: 52.7%,
O=C(N/N=C\c1ccccc1O)c1ccccc1O,,active: 10 µM
CC(C)C[C@@H](CC(=O)N[C@@H](CCC(=O)O)CC(=O)O)NC(=O)[C@@H]1CCCC[C@H]1NC(=O)C[C@@H](NC(=O)C[C@H](Cc1ccccc1)NC(=O)[C@@H]1CNCC[C@H]1N)C(C)C,,"inconclusive: 31.6 µM [inhibitor, single point]"
O=C(OCc1ccc2c(c1)OCO2)c1ccc(S(=O)(=O)N2CCCC2)cc1,,"inconclusive: 31.6 µM [activator, single point]"
CCOC(=O)c1cnc(-n2nc(C)cc2C)nc1NCc1ccc2c(c1)OCO2,inactive: -1.9%,
Cc1ccc(S(=O)(=O)Oc2ccc(N=Nc3ccc(-c4ccc(N=Nc5c(O)ccc6cc(S(=O)(=O)O)cc(S(=O)(=O)O)c56)c(C)c4)cc3C)cc2)cc1,,active: 0.0501 µM
OCCN(CCO)c1nc(N2CCCCC2)c2nc(N(CCO)CCO)nc(N3CCCCC3)c2n1,inactive,
CCCC(C(=O)NCc1ccco1)N(C(=O)CNS(=O)(=O)c1ccc(Cl)cc1)C1CCCC1 (stereo not given),inactive: -8.86%,

# An excerpt of these results, tab-delimited.
Compound	activity change, negative = inhibition	Potency
Cc1ccc2c(c1)N(CCC(=O)NCc1ccccn1)C(=O)CO2		inconclusive: 25.1 µM [inhibitor, partial curve]
COc1cc2c(C#N)c(N3CCN(c4ccccc4OC)CC3)nc(N)c2c(N)n1	inactive: -6.92%	
Cc1cc2c(c(=O)o1)C(C13C=CC(CC1)C3)C(C#N)=C(N)O2 (stereo not given)	inconclusive: 43%	
CN(C)c1ccc(C2(c3ccc(N(C)C)cc3)OC(=O)c3cc(N(C)C)ccc32)cc1		active: 2.51 µM
Oc1cc(O)c2c(c1)O[C@H](c1ccc(O)c(O)c1)[C@@H](O)C2	inconclusive: 55%	
COc1ccc(-c2noc(CCCOc3ccccc3)n2)cc1OC		inconclusive: 25.1 µM [activator, single point]

# Following part

Compound,"activity change, negative = inhibition",Potency
Cc1cccc(C)c1-n1nnnc1S(=O)(=O)Cc1ccccc1Cl,,"inconclusive: 39.8 µM [activator, single point]"
CCOC(=O)c1ccc(NC(=O)CCc2nc(-c3cccc(C)c3)no2)cc1,inactive: 8.09%,
CCC(C)(C)n1nnnc1CN(Cc1ccc(Cl)cc1)Cc1ccco1,,"inconclusive: 31.6 µM [activator, single point]"
Cn1c(=O)c(-c2ccccc2)nc2cnc(N3CCOCC3)nc21,,"inconclusive: 39.8 µM [activator, single point]"
COc1ccc(C2C(C(C)=O)=C(C)N=c3s/c(=C\c4ccco4)c(=O)n32)c(OC)c1 (stereo not given),,"inconclusive: 25.1 µM [inhibitor, partial curve]"
CCC(C)NC(=O)C(Cc1ccccc1)n1cccc1 (stereo not given),inconclusive: 38.6%,
COCCNC(=O)Cn1ncc2ccsc2c1=O,inconclusive: 47.8%,
Oc1ccccc1-c1nnc(COc2ccc(Cl)cc2Cl)o1,inactive: 4.33%,
COc1cccc(C(=O)N(Cc2ccco2)Cc2cc3cccc(C)c3[nH]c2=O)c1,inconclusive: 44%,
CCn1c(=N)c(C(=O)NC)cc2c(=O)n3cccc(C)c3nc21,inconclusive: 22.3%,
CC(C)C[C@@H](CC(=O)N[C@@H](CCC(=O)O)CC(=O)O)NC(=O)[C@@H]1CCCC[C@H]1NC(=O)C[C@H](CCCN)NC(=O)C[C@H](Cc1c[nH]c2ccccc12)NC(=O)[C@@H]1CCCC[C@H]1N,inactive: -19%,
O=C1NC(=O)C(CC(=O)N(Cc2ccco2)C2(C(=O)NC3CCCC3)CCCCC2)N1 (stereo not given),inactive: -5.13%,
Cn1c(=O)c2c(SCc3cccnc3)nc(C3CC3)nc2n(C)c1=O,inactive: -2.07%,
Cc1ccc(S(=O)(=O)N2CCN(C(=O)CN3CCc4ccccc4C3)CC2)cc1,inconclusive: 42%,
Cc1cc(SCC(=O)Nc2c(C)n(C)n(-c3ccccc3)c2=O)n2c(nc3ccccc32)c1C#N,inactive: -4.99%,
COC(=O)[C@@]1(Cc2ccc(F)cc2)[C@H]2c3cc(C(=O)N4CCCC4)n(CC4CC4)c3C[C@H]2CN1C(=O)c1ccccc1,inactive: -4.06%,
CCCCOC(=O)C(C#N)c1nc2ccccc2nc1N1CCOCC1 (stereo not given),inconclusive: 40.8%,
COCCn1c(SCC(=O)c2ccc(CNC(C)=O)o2)nc2ccccc2c1=O,inactive: -2.52%,
CN(Cc1ccccc1)c1ncnc2c1cnn2-c1ccccc1,,"inconclusive: 39.8 µM [activator, single point]"
O=C(NCc1ccco1)C1CCN(C(=O)c2cc3sccc3n2Cc2ccc(F)cc2)CC1,inactive: -10.6%,
CC(=O)N1CCC2(CCCN(c3ccccn3)C2)CC1,inactive: -3.07%,
Nc1ccccc1NC(=O)c1ccccc1,inconclusive: 56%,
CCCCCCCCCCCCCCC/C=C\[C@H](O)[C@@H](NC(=O)CCCCCCCCCCCCC)OC (tested in a mixture with another compound),inactive: -2.74%,
Cn1cccc1C(=O)Nc1nc(-c2ccccn2)cs1,,active: 6.31 µM
COC(=O)[C@@]1(Cc2ccc(F)cc2)[C@H]2c3cc(C(=O)N4CCCC4)n(Cc4ccc(C)c(F)c4F)c3C[C@H]2CN1C(=O)c1ccccc1,inactive: -18.5%,
Cc1nn(C)cc1CNC(=O)c1cnn2c(C(F)F)cc(C3CC3)nc12,inconclusive: 45.9%,

# — PubChem BioAssay AID595 (National Center for Advancing Translational Sciences (NCATS), 2007)
